# Reference: PubChem BioAssay AID493246 (Drosophila RNAi Screening Center, 2011)
# Purpose: 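Genes fly cells need to grow and stay alive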 (primary screen)
# Cell system: Drosophila Kc and S2R+ cells
# Knock-down reagent: long dsRNA against Drosophila genes
# Measured: 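Cell number per well after knock-down, printed as raw plate values; calls were based on per-plate z-scores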
# Reading the numbers: Kc cell number and S2R+ cell number: higher = more cells remaining
# Call rule: 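Counted as a hit if cell number falls by a z-score of at least 3 within its plate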
# The deposit covers about 21,000 reagents; this is an unselected part of those with a known target gene and a result. In the full data, 429 (2%) are marked active. 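Values are raw and not normalised between plates; calls rest on per-plate z-scores that were not deposited.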 Reagent sequences are not shown. Not stated in the record: the amount of reagent, the time to read-out.
The opening 2 entries, ahead of the listing:
Target gene,amplicon,"Kc cell number, rep 1","Kc cell number, rep 2","S2R+ cell number, rep 1","S2R+ cell number, rep 2",activity call
Pde6,DRSC16401,1.63e6,1.69e6,1.21e6,1.33e6,inactive
Pde6,DRSC16402,1.37e6,1.34e6,1.11e6,1.24e6,inactive

The list itself, repeating the preview:
Target gene,amplicon,"Kc cell number, rep 1","Kc cell number, rep 2","S2R+ cell number, rep 1","S2R+ cell number, rep 2",activity call
Pde6,DRSC16401,1.63e6,1.69e6,1.21e6,1.33e6,inactive
Pde6,DRSC16402,1.37e6,1.34e6,1.11e6,1.24e6,inactive
Pde6,DRSC16403,1.38e6,1.39e6,1.12e6,1.25e6,inactive
PIG-K,DRSC18496,1.52e6,1.50e6,1.11e6,1.16e6,inactive
CG18473,DRSC16381,1.83e6,1.98e6,1.40e6,1.56e6,inactive
PolD2,DRSC08147,1.29e6,1.36e6,1.17e6,1.22e6,inactive
egr,DRSC06233,1.53e6,1.52e6,1.25e6,1.21e6,inactive
Z600,DRSC11317,1.49e6,1.56e6,1.32e6,1.45e6,inactive
Mgat2,DRSC16347,4.92e5,,7.96e5,,inactive
Rubicon,DRSC17889,1.57e6,1.55e6,1.08e6,1.24e6,inactive
CG15269,DRSC01942,1.57e6,1.69e6,1.16e6,1.29e6,inactive
Slc45-1,DRSC10427,1.61e6,1.56e6,1.17e6,1.12e6,inactive
Pex11ab,DRSC07145,1.50e6,1.55e6,1.09e6,1.27e6,inactive
Dop1R1,DRSC13021,1.42e6,1.52e6,1.10e6,1.27e6,inactive
Dop1R1,DRSC16652,1.64e6,1.51e6,1.06e6,1.19e6,inactive
sra,DRSC17015,1.60e6,1.70e6,1.34e6,1.36e6,inactive
CG13247,DRSC11695,1.39e6,1.54e6,1.23e6,1.32e6,inactive
POLDIP2,DRSC12194,1.55e6,1.64e6,1.27e6,1.33e6,inactive
CG13138,DRSC02235,1.39e6,1.47e6,1.17e6,1.33e6,inactive
erm,DRSC00700,1.39e6,1.40e6,1.08e6,1.17e6,inactive
CG12061,DRSC20715,1.57e6,1.58e6,1.11e6,1.26e6,inactive
CG7988,DRSC16358,1.36e6,1.34e6,1.03e6,1.12e6,inactive
CG1024,DRSC12496,1.50e6,1.70e6,1.32e6,1.54e6,inactive
shd,DRSC11129,1.28e6,1.38e6,1.21e6,1.30e6,inactive
